This is an account of results in the supplement of paper PMC4635364.

The subject of experiment [1] is ReNCell VM. The experiment can be described thus: neuronal differentiation score (DCX+ cell fraction vs untreated, manual image score) (score (-3 to 3)); higher = more neuronal differentiation. The note with it: 2 uM, 2 weeks.
For experiment [2], the system named is ReNCell VM. The experiment can be described thus: dopaminergic neuron differentiation score (TH+ cell fraction vs untreated, manual image score) (score (0 to 3)); higher = more TH+ dopaminergic neuron differentiation. The note with it: 2 uM, 4 weeks, BDNF 10 ng/ml + GDNF 10 ng/ml.

Structures can show the parent of a compound that is named as a salt. The list shows a part of the results. Repeats in this data set agree poorly, so a single value says little.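 Human fetal ventral-midbrain neural progenitor line ReNCell VM, differentiated without mitogens. Images stained for doublecortin (early neurons) or tyrosine hydroxylase (dopaminergic neurons) were scored by blinded raters against untreated wells (0 = no change). Repeats and both raters were averaged, and compounds averaging 2 or higher were picked as hits for retesting.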

For `S=C(S)N1CCCC1` [Ammonium pyrrolidinedithiocarbamate], in experiment [1] (library: LOPAC), the neuronal differentiation score is inactive: 0. Also, the “dopaminergic neuron differentiation score” value in experiment [2] (library: LOPAC) was inactive: 0.

As for `COc1ccc(OC)c2c(=S)c3ccccc3[nH]c12`, in experiment [1] (library: Tocriscreen), the neuronal differentiation score was inactive: 0. For the same compound, the “dopaminergic neuron differentiation score” value in experiment [2] (library: Tocriscreen) is inactive: 0.

Take `O=C1N(c2ccccc2)c2ccccc2C1(Cc1ccncc1)Cc1ccncc1` [Linopirdine]: in experiment [1] (library: LOPAC), the neuronal differentiation score is inactive: 0. Also, in experiment [2] (library: LOPAC), the “dopaminergic neuron differentiation score” value was inactive: 0.

For `CO[C@@H]1[C@@H](OC(N)=O)[C@@H](O)[C@H](Oc2ccc3c(O)c(NC(=O)c4ccc(O)c(CC=C(C)C)c4)c(=O)oc3c2C)OC1(C)C`, the neuronal differentiation score in experiment [1] (library: Spectrum) was inactive: 0. Moreover, the “dopaminergic neuron differentiation score” value in experiment [2] (library: Spectrum) was inactive: 0.

As to `CC(Cc1ccc(O)c(O)c1)(NN)C(=O)O` [(S)-(-)-Carbidopa], in experiment [1] (library: Tocriscreen), the neuronal differentiation score was inactive: 0. Besides, in experiment [2] (library: Tocriscreen), the “dopaminergic neuron differentiation score” value was inactive: 0.

With `C[N+](C)(C)CC(=O)O`, the neuronal differentiation score in experiment [1] (library: Spectrum) is inactive: 0. Besides, in experiment [2] (library: Spectrum), the “dopaminergic neuron differentiation score” value is inactive: 0.

Consider `Cc1ccc(-c2cc(C(F)(F)F)nn2-c2ccc(S(N)(=O)=O)cc2)cc1` [Celecoxib], for which, in experiment [1] (library: Prestwick), the neuronal differentiation score is inactive: 0. In experiment [2] (library: Prestwick), the “dopaminergic neuron differentiation score” value is inactive: 0.

Consider `CCC[C@H](N[C@@H](C)C(=O)N1[C@H](C(=O)O)C[C@@H]2CCCC[C@@H]21)C(=O)OCC` [Perindopril], for which, in experiment [1] (library: Prestwick), the neuronal differentiation score was inactive: 0. In addition, the “dopaminergic neuron differentiation score” value in experiment [2] (library: Prestwick) is inactive: 0.

Turning to `CCN(CC)C(=S)SSC(=S)N(CC)CC`, in experiment [1] (library: Spectrum), the neuronal differentiation score is inactive: 0. In addition, the “dopaminergic neuron differentiation score” value in experiment [2] (library: Spectrum) was inactive: 0.

On to `COc1ccc2[nH]c3c(C)c4ccncc4c(C)c3c2c1` [9-Methoxyellipticine], for which, in experiment [1] (library: Phytochemical), the neuronal differentiation score is inactive: 0. For the same compound, in experiment [2] (library: Phytochemical), the “dopaminergic neuron differentiation score” value is inactive: 0.

With `CN1[C@@H]2CC[C@H]1C[C@@H](OC(=O)C(O)c1ccccc1)C2` (some centres not stated) [Homatropine HBr], the neuronal differentiation score in experiment [1] (library: Phytochemical) was inactive: 0. In experiment [2] (library: Phytochemical), the “dopaminergic neuron differentiation score” value is inactive: 0.

Consider `O=c1cc(-c2ccccc2)oc2cc(O)cc(O)c12`, for which the neuronal differentiation score in experiment [1] (library: Spectrum) is inactive: -1. For the same compound, the “dopaminergic neuron differentiation score” value in experiment [2] (library: Spectrum) was inactive: 0.

On to `COc1c(O)cc2oc3cc(O)c(CC=C(C)C)c(O)c3c(=O)c2c1CC=C(C)C` [alpha-MANGOSTIN], for which, in experiment [1] (library: Spectrum), the neuronal differentiation score was inactive: 0. The “dopaminergic neuron differentiation score” value in experiment [2] (library: Spectrum) is inactive: 0.

Regarding `O=C1c2ccccc2C(=O)C1c1ccc(Br)cc1`, in experiment [1] (library: Spectrum), the neuronal differentiation score is inactive: 0. Further, the “dopaminergic neuron differentiation score” value in experiment [2] (library: Spectrum) is inactive: 0.

Consider `Nc1c2ccccc2nc2ccccc12`, for which the neuronal differentiation score in experiment [1] (library: Spectrum) is inactive: 0. Moreover, the “dopaminergic neuron differentiation score” value in experiment [2] (library: Spectrum) was inactive: 0.

Consider `CO/N=C(\C(=O)N[C@@H]1C(=O)N2C(C(=O)OC(C)OC(C)=O)=C(COC(N)=O)CS[C@H]12)c1ccco1` (some centres not stated), for which the neuronal differentiation score in experiment [1] (library: Spectrum) was inactive: 0. For the same compound, the “dopaminergic neuron differentiation score” value in experiment [2] (library: Spectrum) was inactive: 0.

As for `COc1cc2cc3c4cc(OC)c(OC)cc4cc[n+]3c(C)c2cc1OC` [Coralyne chloride hydrate], the neuronal differentiation score in experiment [1] (library: Phytochemical) was inactive: 0. Besides, the “dopaminergic neuron differentiation score” value in experiment [2] (library: Phytochemical) was inactive: 0.

As for `NC[C@@H]1O[C@H](O[C@H]2[C@@H](O)[C@H](O[C@@H]3[C@@H](O)[C@H](N)C[C@H](N)[C@H]3O[C@H]3O[C@H](CO)[C@@H](O)[C@H](O)[C@H]3N)O[C@@H]2CO)[C@H](N)[C@@H](O)[C@@H]1O`, in experiment [1] (library: Spectrum), the neuronal differentiation score was inactive: 0. The “dopaminergic neuron differentiation score” value in experiment [2] (library: Spectrum) is inactive: 0.

For `CCC(C(N)=O)c1ccccc1` (configuration not stated), the neuronal differentiation score in experiment [1] (library: Spectrum) is inactive: 0. Moreover, the “dopaminergic neuron differentiation score” value in experiment [2] (library: Spectrum) was inactive: 0.

On to `NC(=O)c1cccnc1`, for which the neuronal differentiation score in experiment [1] (library: Spectrum) was inactive: 0. Besides, the “dopaminergic neuron differentiation score” value in experiment [2] (library: Spectrum) was inactive: 0.

Take `NC(N)=NCCNS(=O)(=O)c1cccc2cnccc12` [HA-1004 hydrochloride]: the neuronal differentiation score in experiment [1] (library: LOPAC) is inactive: 0. In addition, the “dopaminergic neuron differentiation score” value in experiment [2] (library: LOPAC) was inactive: 0.

Take `O=C(O)c1cc(/N=N/c2ccc(S(=O)(=O)Nc3ccccn3)cc2)ccc1O` [Sulfasalazine]: the neuronal differentiation score in experiment [1] (library: Prestwick) was inactive: 0. Further, the “dopaminergic neuron differentiation score” value in experiment [2] (library: Prestwick) is inactive: 0.

In the case of `CC(C)(C)CC(C)(C)c1ccc(OCCOCC[N+](C)(C)Cc2ccccc2)cc1` [Benzethonium chloride], in experiment [1] (library: Prestwick), the neuronal differentiation score is inactive: 0. In addition, the “dopaminergic neuron differentiation score” value in experiment [2] (library: Prestwick) was inactive: 0.

Consider `O=C(OC[C@H]1O[C@@H](OC(=O)c2cc(O)c(O)c(OC(=O)c3cc(O)c(O)c(O)c3)c2)[C@H](OC(=O)c2cc(O)c(O)c(OC(=O)c3cc(O)c(O)c(O)c3)c2)[C@@H](OC(=O)c2cc(O)c(O)c(OC(=O)c3cc(O)c(O)c(O)c3)c2)[C@@H]1OC(=O)c1cc(O)c(O)c(OC(=O)c2cc(O)c(O)c(O)c2)c1)c1cc(O)c(O)c(OC(=O)c2cc(O)c(O)c(O)c2)c1`, for which the neuronal differentiation score in experiment [1] (library: Spectrum) was inactive: 0. The “dopaminergic neuron differentiation score” value in experiment [2] (library: Spectrum) is inactive: 0.

`COc1ccccc1N1CCN(CC(O)COc2cccc3ccccc23)CC1` (configuration not stated): the neuronal differentiation score in experiment [1] (library: Spectrum) is inactive: -1. The “dopaminergic neuron differentiation score” value in experiment [2] (library: Spectrum) is inactive: 0.

With `COc1ccc([C@@H](C)C(=O)c2ccc(O)cc2O)cc1`, the neuronal differentiation score in experiment [1] (library: Spectrum) is inactive: 0. The “dopaminergic neuron differentiation score” value in experiment [2] (library: Spectrum) was inactive: 1.

As to `C=CC[C@@H]1/C=C(\C)C[C@H](C)C[C@H](OC)[C@H]2O[C@@](O)(C(=O)C(=O)N3CCCC[C@H]3C(=O)O[C@H](/C(C)=C/[C@@H]3CC[C@@H](O)[C@H](OC)C3)[C@H](C)[C@@H](O)CC1=O)[C@H](C)C[C@@H]2OC`, the neuronal differentiation score in experiment [1] (library: Spectrum) was inactive: 1. In addition, the “dopaminergic neuron differentiation score” value in experiment [2] (library: Spectrum) is inactive: 0.

Turning to `NCCCCCc1c[nH]cn1` [Impentamine dihydrobromide], the neuronal differentiation score in experiment [1] (library: Tocriscreen) is inactive: 0. In addition, the “dopaminergic neuron differentiation score” value in experiment [2] (library: Tocriscreen) was inactive: 0.

Turning to `C#C[C@]1(O)CC[C@H]2[C@@H]3CCC4=CC(=O)CC[C@@H]4[C@H]3CC[C@@]21C`, the neuronal differentiation score in experiment [1] (library: Spectrum) is inactive: 0. Also, the “dopaminergic neuron differentiation score” value in experiment [2] (library: Spectrum) was inactive: 0.

For the compound `O=C(CCCCCCC(=O)Nc1ccccc1)NO`, the neuronal differentiation score in experiment [1] (library: Spectrum) is inactive: 0. For the same compound, the “dopaminergic neuron differentiation score” value in experiment [2] (library: Spectrum) was inactive: 0.

Turning to `CCCC1C(=O)N2C(N(C)C)=Nc3ccc(C)cc3N2C1=O` (configuration not stated) [Azapropazone], in experiment [1] (library: Prestwick), the neuronal differentiation score is inactive: 0. For the same compound, the “dopaminergic neuron differentiation score” value in experiment [2] (library: Prestwick) was inactive: 0.
